Where a chain is given by its changes, count along the chain named. Results are given in words; binding and its absence hold for the method and conditions named. Some entries that bind do so weakly or less than the wild type.
B1: 132-D4 (VHH, not shown: small tags and cut ends)
VHH: EVQLVESGGGLVQAGGSLRLSCVLSGSSVSIGAMGWYRQAPGKQRDLVAEIYPSGSTIYADSVKGRFTISRDNAKNTVYLQMKSLKPEDTAVYYCNVVRWGADFWGQGTQVTVSS
B2: 132-E3 (VHH, not shown: small tags and cut ends)
VHH: B1 VHH
B3: 132-C2 (VHH, not shown: small tags and cut ends)
VHH: EVQLVESGGGLVQAGGSLRLSCAASGSIFSIKDMRWFRQAPGKHRELVARISSGGATHYADPVKGRFTISRDNAKNTGSLQMNSLKPEDTAVYYCNADDSSAGWPPRNYWGQGTQVTVSS
B4: 132-G4 (VHH, not shown: small tags and cut ends)
VHH: B3 VHH
B5: 107-B9 (VHH, not shown: small tags and cut ends)
VHH: EVQLVESGGGLVQPGGSLRLSCAASGSIFSINDMGWFRQAPGKEREHAALIRFKDGSIYYADSVKGRFTISRDNAKNTVYLQMNSLKPEDTAVYYCAAKTGTSFVYWGQGTQVTVSS
B6: 107-F8 (VHH, not shown: small tags and cut ends)
VHH: B5 VHH with A48V, F53I, S103P
B7: 107-D8 (VHH, not shown: small tags and cut ends)
VHH: B5 VHH with A48V, F53I, S103P
B8: 107-F12 (VHH, not shown: small tags and cut ends)
VHH: B5 VHH
B9: 107-A1 (VHH, not shown: small tags and cut ends)
VHH: EVQLVESGGGLVQAGESLRLSCVASGISISTEIMGWWRQAPGKQGESVAILKSDGTTYYPDSVKGRFAISRDNAKNTVYLQMSSLKLEDTGVYYCIIAGRGRGQGTQVTVSS
B10: 133-D1 (VHH, not shown: small tags and cut ends)
VHH: B9 VHH with E1Z, S30N, E32N, I33V, W37Y, Q44E, L51I, S53T, T56S, S83N
B11: 133-C5 (VHH, not shown: small tags and cut ends)
VHH: B9 VHH with E16G, S28T, I33V, W37Y, L51I, T56S, S83N
B12: 107-G6 (VHH, not shown: small tags and cut ends)
VHH: B9 VHH
B13: 107-D6 (VHH, not shown: small tags and cut ends)
VHH: B9 VHH with W37Y, L51V, T56S, A68G, S83N, L87V, I97M
B14: 107-E1 (VHH, not shown: small tags and cut ends)
VHH: B9 VHH with E16G, S28T, I33V, W37Y, L51I, T56S, S83N
B15: 133-B1 (VHH, not shown: small tags and cut ends)
VHH: B9 VHH with W37Y, L51V, T56S, A68G, S83N, L87V, I97M
B16: 132-F10 (VHH, not shown: small tags and cut ends)
VHH: EVQLVESGGGLVQAGGSLRLSCAASGNTFSFNVMGWYRQAPGKQRELVTIIBNGGTTNYADSVKGRFTISRDNAKNTVYLQMNSLKPEDTARYYCHARRGGTLYILGDSNYWGQGTQVTVSS
B17: 132-B10 (VHH, not shown: small tags and cut ends)
VHH: B16 VHH with B52D, N58D, D72B, Y94H, I105T, D108E, T116I

Amino acid sequences for entries named in this document (tags omitted). A change or cut given only in a name is not applied to a line headed by its entry. Residues count along the entry.
UniProt Q99MB1, residues 26-705: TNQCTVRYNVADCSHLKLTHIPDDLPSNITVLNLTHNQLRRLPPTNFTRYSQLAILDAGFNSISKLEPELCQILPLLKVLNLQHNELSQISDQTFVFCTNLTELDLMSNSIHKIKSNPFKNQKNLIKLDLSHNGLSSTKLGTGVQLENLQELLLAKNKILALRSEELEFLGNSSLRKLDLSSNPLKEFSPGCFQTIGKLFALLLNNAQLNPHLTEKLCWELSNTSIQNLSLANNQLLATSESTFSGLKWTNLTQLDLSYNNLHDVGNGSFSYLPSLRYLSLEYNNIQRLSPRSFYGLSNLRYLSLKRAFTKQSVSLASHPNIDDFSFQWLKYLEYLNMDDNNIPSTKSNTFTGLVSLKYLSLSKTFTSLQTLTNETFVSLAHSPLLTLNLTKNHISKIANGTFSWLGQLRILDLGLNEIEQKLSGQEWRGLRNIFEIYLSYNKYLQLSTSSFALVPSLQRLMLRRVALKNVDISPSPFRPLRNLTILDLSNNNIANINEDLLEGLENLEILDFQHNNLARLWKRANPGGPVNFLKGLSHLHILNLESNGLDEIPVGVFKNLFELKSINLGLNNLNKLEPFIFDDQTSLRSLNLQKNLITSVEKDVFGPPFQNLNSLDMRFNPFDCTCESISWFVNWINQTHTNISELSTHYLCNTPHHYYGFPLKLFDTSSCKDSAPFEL
UniProt O00206: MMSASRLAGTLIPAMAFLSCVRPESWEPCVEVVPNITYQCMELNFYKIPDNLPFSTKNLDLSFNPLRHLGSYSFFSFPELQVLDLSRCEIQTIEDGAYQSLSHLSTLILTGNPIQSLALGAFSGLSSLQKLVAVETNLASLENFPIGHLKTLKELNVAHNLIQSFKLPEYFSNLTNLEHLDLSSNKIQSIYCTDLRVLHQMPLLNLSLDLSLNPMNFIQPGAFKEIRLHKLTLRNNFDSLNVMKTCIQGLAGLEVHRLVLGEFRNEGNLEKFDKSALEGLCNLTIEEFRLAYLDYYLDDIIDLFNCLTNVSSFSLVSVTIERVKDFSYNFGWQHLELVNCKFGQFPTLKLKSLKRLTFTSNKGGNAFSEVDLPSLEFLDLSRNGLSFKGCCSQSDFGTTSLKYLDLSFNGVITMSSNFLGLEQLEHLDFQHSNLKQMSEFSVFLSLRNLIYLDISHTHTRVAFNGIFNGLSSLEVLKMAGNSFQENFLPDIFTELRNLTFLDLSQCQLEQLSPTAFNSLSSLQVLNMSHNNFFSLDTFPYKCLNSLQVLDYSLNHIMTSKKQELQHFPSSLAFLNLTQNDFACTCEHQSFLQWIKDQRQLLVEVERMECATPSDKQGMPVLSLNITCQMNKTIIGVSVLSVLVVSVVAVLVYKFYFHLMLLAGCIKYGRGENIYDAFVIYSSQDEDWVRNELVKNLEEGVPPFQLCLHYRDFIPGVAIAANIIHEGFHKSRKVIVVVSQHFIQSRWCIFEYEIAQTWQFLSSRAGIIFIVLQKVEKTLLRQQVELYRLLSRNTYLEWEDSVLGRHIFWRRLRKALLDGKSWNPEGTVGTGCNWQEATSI
UniProt Q9Y6Y9: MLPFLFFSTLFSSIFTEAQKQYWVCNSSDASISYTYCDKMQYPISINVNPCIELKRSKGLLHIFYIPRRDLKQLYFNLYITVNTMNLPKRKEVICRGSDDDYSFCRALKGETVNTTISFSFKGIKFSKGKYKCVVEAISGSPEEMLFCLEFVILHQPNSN
UniProt O15455, residues 27-700: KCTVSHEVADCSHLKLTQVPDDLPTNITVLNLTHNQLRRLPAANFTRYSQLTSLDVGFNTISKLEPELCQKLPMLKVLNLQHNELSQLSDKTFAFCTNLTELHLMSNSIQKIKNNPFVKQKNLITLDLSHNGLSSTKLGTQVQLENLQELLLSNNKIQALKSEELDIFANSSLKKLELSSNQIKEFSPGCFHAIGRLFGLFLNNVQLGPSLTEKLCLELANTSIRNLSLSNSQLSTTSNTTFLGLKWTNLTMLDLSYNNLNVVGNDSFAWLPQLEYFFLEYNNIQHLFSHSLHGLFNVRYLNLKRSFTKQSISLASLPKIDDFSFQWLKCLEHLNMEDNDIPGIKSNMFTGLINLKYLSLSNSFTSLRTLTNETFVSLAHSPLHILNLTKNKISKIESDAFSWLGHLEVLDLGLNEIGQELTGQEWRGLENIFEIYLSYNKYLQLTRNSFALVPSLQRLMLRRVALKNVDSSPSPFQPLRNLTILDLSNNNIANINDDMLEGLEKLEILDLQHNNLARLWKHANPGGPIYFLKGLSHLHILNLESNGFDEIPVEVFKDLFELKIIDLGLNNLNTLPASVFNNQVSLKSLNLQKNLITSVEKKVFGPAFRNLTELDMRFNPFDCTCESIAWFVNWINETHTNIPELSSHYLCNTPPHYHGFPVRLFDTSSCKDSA

Target: recombinant murine TLR3, R&D Systems cat no: 3005-TR (murine) (UniProt Q99MB1)
Experiment: ELISA: TLR coated at 2 ug/ml, periplasmic extract of the clone, anti-VHH detection, OD against no-Nanobody control

binding | Binder
binds | B1
binds | B2
binds | B3
binds | B4

Target: recombinant human TLR4/MD2 (rhTLR4/MD2), R&D Systems cat no: 3146-TM/CF (human) (UniProt O00206+Q9Y6Y9)
Experiment: as above

binding | Binder
binds | B5
binds | B6
binds | B7
binds | B8
binds | B9
binds | B10
binds | B11
binds | B12
binds | B13
binds | B14
binds | B15

Target: recombinant human TLR3, R&D Systems cat no: 1487-TR (human) (UniProt O15455)
Experiment: as above

binding | Binder
binds | B16
binds | B17
